# Experimental data as given in PubChem BioAssay AID720551 (National Center for Advancing Translational Sciences (NCATS), 2013).
# By UniProt entry, the sequences of proteins in these tests, tags left out. Where a name states a change or a piece, a line headed by the entry shows the natural chain unless it says otherwise.
# UniProt Q12809: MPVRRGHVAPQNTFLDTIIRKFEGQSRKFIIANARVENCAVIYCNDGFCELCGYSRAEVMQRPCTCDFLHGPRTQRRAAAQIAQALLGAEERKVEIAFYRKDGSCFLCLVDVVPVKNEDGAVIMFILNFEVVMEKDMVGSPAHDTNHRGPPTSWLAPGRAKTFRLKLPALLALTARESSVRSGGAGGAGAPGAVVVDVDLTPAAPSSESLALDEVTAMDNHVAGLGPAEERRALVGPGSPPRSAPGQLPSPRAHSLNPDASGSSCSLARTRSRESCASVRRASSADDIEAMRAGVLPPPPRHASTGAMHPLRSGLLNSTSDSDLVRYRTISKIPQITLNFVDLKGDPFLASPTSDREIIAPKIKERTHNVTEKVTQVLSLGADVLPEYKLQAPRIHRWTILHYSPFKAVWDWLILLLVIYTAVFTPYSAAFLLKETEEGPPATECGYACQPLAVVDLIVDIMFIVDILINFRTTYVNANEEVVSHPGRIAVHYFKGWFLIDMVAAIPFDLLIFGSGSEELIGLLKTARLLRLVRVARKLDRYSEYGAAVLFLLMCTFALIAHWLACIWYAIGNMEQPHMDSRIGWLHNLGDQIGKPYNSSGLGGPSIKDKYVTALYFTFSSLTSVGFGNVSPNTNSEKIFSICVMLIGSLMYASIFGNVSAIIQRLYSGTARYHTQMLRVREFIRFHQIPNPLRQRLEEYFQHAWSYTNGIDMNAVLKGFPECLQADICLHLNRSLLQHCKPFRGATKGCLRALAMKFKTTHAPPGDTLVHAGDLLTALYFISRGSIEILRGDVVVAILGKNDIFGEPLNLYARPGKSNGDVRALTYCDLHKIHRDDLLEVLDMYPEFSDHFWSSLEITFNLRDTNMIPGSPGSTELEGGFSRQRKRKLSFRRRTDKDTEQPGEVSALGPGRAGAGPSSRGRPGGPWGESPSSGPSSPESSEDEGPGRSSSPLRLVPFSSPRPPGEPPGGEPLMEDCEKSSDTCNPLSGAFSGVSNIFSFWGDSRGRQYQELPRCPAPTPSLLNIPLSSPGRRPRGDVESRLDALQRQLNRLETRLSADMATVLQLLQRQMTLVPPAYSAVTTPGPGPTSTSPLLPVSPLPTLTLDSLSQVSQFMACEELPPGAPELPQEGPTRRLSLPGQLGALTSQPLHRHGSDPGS
# The whole screen tested about 340,000 compounds, of which about 1,300 (0.38%) were called active. Inconclusive means that the source gave no clear call. Such entries were picked first, then a sample of the others.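 Rule for the calls: active = maximum activity change below -70%; inconclusive = maximum activity change between -70% and -50%; inactive = maximum activity change above -50%.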
# Molecular target: Voltage-gated inwardly rectifying potassium channel KCNH2 (Homo sapiens) (UniProt Q12809)
# Assay: qHTS for Inhibitors of KCHN2 3.1: Wildtype qHTS
# Conditions: U2OS, BacMam KCNH2, thallium flux FluxOr; at 1.84 µM, stronger effect = lower value
# Summary of the method: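 U2OS cells were transduced with wild-type KCNH2 virus (2.03 x 10^8 / mL) for 4 h at room temperature, then cultured overnight at 37 C. Thallium flux was read with FluxOr dye. Rate constants were normalized to DMSO controls.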
# % is set by controls: 0 for no effect and ±100 for the full control effect.
row,SMILES,activity change
1,COc1cccc2sc(Nc3nnc(-c4ccc(F)cc4)o3)nc12,inconclusive: -55.8%
2,COc1cccc(C(=O)N2N=C(c3ccccc3)CC2(O)C(F)(F)F)c1 (stereo not drawn),inactive: 0.86%
3,Cc1ccc(S(=O)(=O)N(C)Cc2ccc(C(=O)N/N=C/c3ccc(OC(F)F)cc3)cc2)cc1,inconclusive: -63.5%
4,N#C/C(=C/c1ccc(-c2ccc(S(=O)(=O)N3CCOCC3)cc2)o1)C(=O)NC1CC1,active: -79.7%
5,CCc1ccc(C2=CC(c3cc(Br)ccc3F)n3ncnc3N2)cc1 (stereo not drawn),inactive: 12.8%
6,COc1cc(O)c(C(CCN2CCN(c3ccccc3)CC2)c2ccc3c(c2)OCO3)c(OC)c1 (stereo not drawn),inconclusive: -62.5%
7,Cc1sc2nc[nH]c(=S)c2c1-c1ccccc1,inconclusive: -63.4%
8,O=P(O)(Cc1ccccc1)c1ccccc1,inconclusive: -61.2%
9,CCCC(C(=O)NCc1ccco1)N(C(=O)CNS(=O)(=O)c1ccc(Cl)cc1)C1CCCC1 (stereo not drawn),inactive: 1.64%
10,CCCCNc1c(-c2ccc(SC(C)CC)c(OC)c2)nc2ccc(Cl)cn12 (stereo not drawn),active: -238%
11,Cc1ccc(-n2cc(CNCCCn3cccn3)c(-c3cccc(C)c3)n2)cc1,inconclusive: -52.2%
12,CCc1noc(C)c1C(=O)OCC(=O)NCc1ccccc1OC,inconclusive: -52.8%
13,CN(C)c1ccc(N2C(=NC(=O)CCC3CCCC3)SC3CS(=O)(=O)CC32)cc1 (stereo not drawn),active: -281%
14,Cn1cc(S(=O)(=O)N2CCc3ccccc32)cc1C(=O)NC(C)(C)C,inactive: -4.82%
15,Cc1ccc(NC(=O)CSc2nnc(-c3ccncc3)n2N)cc1C,active: -204%
16,C=CCn1c(SCC(=O)N2CCN(C(=O)c3ccco3)CC2)nc2sc(CC)cc2c1=O,active: -109%
17,CSC(=S)NN=C(C)c1cccc(C)n1,inconclusive: -66.7%
18,CCOc1ccc2nc3cc(N=Nc4ccc(N)nc4N)ccc3c(N)c2c1,inconclusive: -69.6%
19,CCOc1ccc2nc(NC(=O)CSc3nc4ccccc4c(=O)n3Cc3ccco3)sc2c1,inconclusive: -59.4%
20,COc1ccc(CNCCC(c2ccc(F)cc2)c2ccc(OC)cc2)cc1 (stereo not drawn),active: -133%
21,O=[N+]([O-])c1ccc(N2CCN(CC(O)COc3ccccc3)CC2)cc1 (stereo not drawn),inconclusive: -52.2%
22,COc1ccc(S(=O)(=O)N2CCOC2CNC(=O)C(=O)NCc2ccccc2OC)cc1 (stereo not drawn),inconclusive: -58.6%
23,O=C(Cc1ccc([N+](=O)[O-])cc1)NCc1ccccc1Cl,inactive: 1.72%
24,c1nc(SSc2ncnc3nc[nH]c23)c2[nH]cnc2n1,inactive: 17.8%
25,CCNS(=O)(=O)c1ccc(NS(C)(=O)=O)cc1,inconclusive: -70%
26,O=c1ccc(-c2ccc(S(=O)(=O)Nc3ccc(F)cc3)s2)n[nH]1,inconclusive: -56.9%
27,COc1ccc(C(=O)/C=C/c2ccc(C)cc2)c(OC(=O)c2ccc([N+](=O)[O-])cc2)c1,inconclusive: -61%

row,SMILES,activity change
1,COc1ccc(CN(C)CC(O)COC(c2ccc(OC)cc2)c2ccc(OC)cc2)cc1 (stereo not drawn),inconclusive: -55.6%
2,COc1ccc(N2C3=[N+](CCCC3)CC2(C)O)cc1 (stereo not drawn),inconclusive: -58.5%
3,COc1ccc(CCNC(=O)C23CCC(C)(C(=O)C2Br)C3(C)C)cc1OC (stereo not drawn),inactive: -5.86%
4,COc1ccc(NC(=O)CN2CCN(CC(=O)Nc3ccc(F)cc3F)CC2)cc1,active: -120%
5,O=C(Nc1ccc(S(=O)(=O)Nc2ncccn2)cc1)c1ccc(S(=O)(=O)N2CCCC2)cc1,inconclusive: -66.9%
6,CCCNC(=O)c1ccc(N2CCC3(CC2)CC(c2ccccc2)=NO3)c(NC(=O)c2cccc(C)c2)c1,inconclusive: -61.7%
7,CCOc1ccc(N2CC(C(=O)Nc3ccc(N4CCOCC4)cc3)CC2=O)cc1 (stereo not drawn),active: -104%
8,COc1cccc(NC(=O)c2nc(SC)ncc2Cl)c1,inactive: 1.8%
9,CCOc1ccc(CN2CCN(Cc3[nH]c4ccc(OC)cc4c3C)CC2CCO)cc1 (stereo not drawn),active: -73.1%
10,O=C(COC(=O)COc1cccc(Br)c1)Nc1c(Cl)cccc1Cl,active: -189%
11,O=C(COc1ccc(F)cc1)N(Cc1cccc(Br)c1)C1CCS(=O)(=O)C1 (stereo not drawn),inconclusive: -59.8%
12,CN(C)CCCNC(=O)/C(=C/c1ccc(-c2ccc([N+](=O)[O-])cc2)o1)NC(=O)c1ccccc1,inconclusive: -56.4%
13,CCCCCN(C(=O)CN1CCC(Cc2ccccc2)CC1)c1c(N)n(CCCC)c(=O)[nH]c1=O,inconclusive: -52.7%
14,COc1ccc(C)cc1N(C(=O)COc1ccccc1)c1nc2ccccc2s1,inconclusive: -65.8%
15,N=c1n(Cc2ccc(Cl)cc2)c2ccccc2n1CC(O)c1ccco1 (stereo not drawn),inconclusive: -57.2%
16,CCOc1ccc2ncc(C(=O)c3ccc(OC)cc3)c(N3CCN(CC)CC3)c2c1,inconclusive: -50.2%
17,COc1ccc(N(C)S(=O)(=O)c2cccc(C(=O)Nc3ccc(-n4cnnn4)cc3)c2)cc1,inactive: -1.21%
18,Cc1[nH]n(-c2ccccc2)c(=O)c1CCO,inconclusive: -62.6%
19,CCOc1ccc(CCN2C(=S)N([C@@H](CC(C)C)CN3CCCC3CN3C(=S)NC[C@@H]3Cc3ccc(O)cc3)C[C@@H]2Cc2ccc(O)cc2)cc1 (stereo partly drawn),inconclusive: -64.2%
20,Cc1ccc(C2CC(c3ccccc3)=NN2c2ccccc2)o1 (stereo not drawn),inactive: -1.43%
21,Cc1n[nH]c(=O)c2c(NC(=O)CSc3nc4ccccc4c(=O)n3-c3ccc(OC(F)F)cc3)oc(C)c12,inconclusive: -64.1%
22,CN(C(=O)c1cccnc1)c1nnc(-c2ccccn2)s1,inconclusive: -55.5%
23,O=C(Nc1ccccc1)c1sc(Cl)nc1-c1ccccc1,inactive: -1.26%
24,O=[N+]([O-])c1ccc(-c2ccc(/C=N/Nc3nc(NCc4ccccc4)nc(N4CCOCC4)n3)o2)cc1,inconclusive: -60.5%
25,CCCCCCSc1ccc(-c2nc3cc(C)ccn3c2NC2CCCCC2)cc1,inactive: -11%
26,CCOc1ccc(N2CC(C(=O)Nc3ccc(OC)c(S(=O)(=O)N4CCCCC4)c3)CC2=O)cc1 (stereo not drawn),inactive: 0.391%

# Quoted from the listing:
# Value for CN(C(=O)c1cccnc1)c1nnc(-c2ccccn2)s1 under activity change: inconclusive: -55.5%
# Value for O=C(Nc1ccc(S(=O)(=O)Nc2ncccn2)cc1)c1ccc(S(=O)(=O)N2CCCC2)cc1 under activity change: inconclusive: -66.9%
